Test results: publication PMC9455066
No constants are given. Whether binding was seen depends on the method and setting. Binding seen in cells or lysates may run through a third protein. Some binding calls cover weakened binding; strength is not graded here.

Chains of the proteins cited; added tags and fusions are not shown.
UniProt P01106: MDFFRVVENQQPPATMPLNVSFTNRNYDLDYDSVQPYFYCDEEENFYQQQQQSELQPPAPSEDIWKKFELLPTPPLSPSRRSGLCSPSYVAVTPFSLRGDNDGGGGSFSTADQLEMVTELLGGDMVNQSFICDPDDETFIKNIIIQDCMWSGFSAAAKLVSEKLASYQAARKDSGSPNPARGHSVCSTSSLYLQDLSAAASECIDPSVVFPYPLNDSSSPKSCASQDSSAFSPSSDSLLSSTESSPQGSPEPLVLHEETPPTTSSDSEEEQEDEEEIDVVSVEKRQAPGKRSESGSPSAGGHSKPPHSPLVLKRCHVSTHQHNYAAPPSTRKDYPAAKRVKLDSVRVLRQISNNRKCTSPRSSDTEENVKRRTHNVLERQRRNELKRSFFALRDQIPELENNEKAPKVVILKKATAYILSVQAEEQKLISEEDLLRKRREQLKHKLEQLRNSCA

Biological target: T1, ubiquitin-like, containing PHD and RING finger domain, 1 (UHRF1) (human (endogenous in MOLT4 and REH)) (UniProt Q96T88)
T1 sequence: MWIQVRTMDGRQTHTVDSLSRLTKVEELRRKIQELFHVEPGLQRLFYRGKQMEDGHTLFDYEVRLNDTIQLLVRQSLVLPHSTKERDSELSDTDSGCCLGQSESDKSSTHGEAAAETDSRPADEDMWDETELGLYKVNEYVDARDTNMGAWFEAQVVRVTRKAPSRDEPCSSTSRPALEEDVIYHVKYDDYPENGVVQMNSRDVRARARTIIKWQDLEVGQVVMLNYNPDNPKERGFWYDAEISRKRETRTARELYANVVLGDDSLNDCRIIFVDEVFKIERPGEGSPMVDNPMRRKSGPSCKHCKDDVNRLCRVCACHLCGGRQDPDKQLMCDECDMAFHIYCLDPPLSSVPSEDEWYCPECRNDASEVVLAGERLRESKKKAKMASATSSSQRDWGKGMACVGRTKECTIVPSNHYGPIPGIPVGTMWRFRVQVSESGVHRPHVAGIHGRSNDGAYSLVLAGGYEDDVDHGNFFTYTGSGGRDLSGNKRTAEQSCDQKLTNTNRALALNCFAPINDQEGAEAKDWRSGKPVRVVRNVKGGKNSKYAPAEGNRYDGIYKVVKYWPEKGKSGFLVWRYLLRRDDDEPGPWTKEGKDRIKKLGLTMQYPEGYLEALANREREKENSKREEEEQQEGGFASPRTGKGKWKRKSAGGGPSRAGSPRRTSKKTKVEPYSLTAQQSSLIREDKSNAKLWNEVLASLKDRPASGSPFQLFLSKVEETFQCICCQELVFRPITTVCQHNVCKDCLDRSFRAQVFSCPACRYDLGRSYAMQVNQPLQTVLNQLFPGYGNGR
Assay: co-IP; endogenous proteins; MOLT4 and REH cells lysed in IP Lysis buffer with protease inhibitors at 4 °C; 2 µg anti-UHRF1, anti-MYC or rabbit IgG with Dynabeads protein G overnight at 4 °C; washed three times with PBS; Western blot with anti-UHRF1 and anti-c-Myc

- binding: binds
Substance: c-Myc (from UniProt P01106 1-454)
